Measured values taken from paper PMC10024693.
Residue numbers refer to the chain shown, from its start. Results are given in words; binding and its absence hold for the method and conditions named. In cells and extracts the contact can be indirect. Some results given as binding are weak or reduced against the parent protein; the word gives no strength. For part of these data: Sequences can lack the tags named with a protein.

Protein sequences, listed by entry. Tags and fused reporters are not part of them.
UniProt Q969H0: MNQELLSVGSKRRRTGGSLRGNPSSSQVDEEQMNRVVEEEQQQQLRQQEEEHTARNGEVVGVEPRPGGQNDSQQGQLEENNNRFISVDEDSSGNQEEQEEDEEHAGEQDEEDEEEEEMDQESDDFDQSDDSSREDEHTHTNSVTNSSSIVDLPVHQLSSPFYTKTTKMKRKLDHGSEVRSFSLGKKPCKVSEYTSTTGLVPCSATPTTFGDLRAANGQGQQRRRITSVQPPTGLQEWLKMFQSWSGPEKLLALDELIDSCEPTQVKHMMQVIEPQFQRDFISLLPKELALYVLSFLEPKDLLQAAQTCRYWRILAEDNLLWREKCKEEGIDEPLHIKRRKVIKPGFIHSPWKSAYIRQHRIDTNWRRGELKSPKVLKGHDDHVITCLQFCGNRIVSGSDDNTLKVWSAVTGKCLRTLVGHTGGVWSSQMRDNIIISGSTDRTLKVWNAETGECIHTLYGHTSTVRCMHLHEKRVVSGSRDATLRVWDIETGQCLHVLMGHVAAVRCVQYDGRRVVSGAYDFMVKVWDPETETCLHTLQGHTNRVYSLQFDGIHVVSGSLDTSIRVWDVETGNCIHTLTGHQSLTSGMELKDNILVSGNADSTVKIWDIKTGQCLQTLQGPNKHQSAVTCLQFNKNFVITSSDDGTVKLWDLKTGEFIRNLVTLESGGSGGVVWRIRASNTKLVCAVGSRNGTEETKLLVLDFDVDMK

Tests used:
[1] = biological target: T1, endogenous DYRK2 of HCT116 cells (human (endogenous in HCT116)) (UniProt Q92630); assay: co-IP; HCT116 cells WT (+/+) and FBXW7 (−/−) treated with DOX (2 μg/ml) or vehicle for 12 h, MG-132 (10 μM); immunoprecipitation with a DYRK2 antibody or control IgGs; WB of endogenous proteins
T1 sequence: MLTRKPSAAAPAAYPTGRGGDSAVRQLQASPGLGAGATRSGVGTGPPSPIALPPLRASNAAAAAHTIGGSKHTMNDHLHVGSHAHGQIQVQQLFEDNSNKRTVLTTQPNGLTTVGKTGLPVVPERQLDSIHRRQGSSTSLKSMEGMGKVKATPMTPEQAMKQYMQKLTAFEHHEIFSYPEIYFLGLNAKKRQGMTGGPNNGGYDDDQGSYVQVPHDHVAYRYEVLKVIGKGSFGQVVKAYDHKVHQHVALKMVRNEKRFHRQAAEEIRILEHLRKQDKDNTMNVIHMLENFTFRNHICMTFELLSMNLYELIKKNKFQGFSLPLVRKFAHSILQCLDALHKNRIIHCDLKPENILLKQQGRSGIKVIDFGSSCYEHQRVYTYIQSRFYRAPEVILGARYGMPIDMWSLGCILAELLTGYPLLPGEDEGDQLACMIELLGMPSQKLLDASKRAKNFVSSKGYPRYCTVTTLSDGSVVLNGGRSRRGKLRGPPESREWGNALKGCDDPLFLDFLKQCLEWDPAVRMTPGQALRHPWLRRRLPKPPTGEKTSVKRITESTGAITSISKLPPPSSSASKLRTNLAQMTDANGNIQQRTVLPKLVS

[2] = biological target: T2, Myc-DYRK2 kinase-dead (KD, K178M) (human) (UniProt Q92630); assay: co-IP; HEK-293T co-transfected with Flag-FBXW7 and Myc-DYRK2 WT or KD; cells treated with MG-132 (10 μM); immunoprecipitation with a Myc antibody or control IgGs; WB
T2 sequence: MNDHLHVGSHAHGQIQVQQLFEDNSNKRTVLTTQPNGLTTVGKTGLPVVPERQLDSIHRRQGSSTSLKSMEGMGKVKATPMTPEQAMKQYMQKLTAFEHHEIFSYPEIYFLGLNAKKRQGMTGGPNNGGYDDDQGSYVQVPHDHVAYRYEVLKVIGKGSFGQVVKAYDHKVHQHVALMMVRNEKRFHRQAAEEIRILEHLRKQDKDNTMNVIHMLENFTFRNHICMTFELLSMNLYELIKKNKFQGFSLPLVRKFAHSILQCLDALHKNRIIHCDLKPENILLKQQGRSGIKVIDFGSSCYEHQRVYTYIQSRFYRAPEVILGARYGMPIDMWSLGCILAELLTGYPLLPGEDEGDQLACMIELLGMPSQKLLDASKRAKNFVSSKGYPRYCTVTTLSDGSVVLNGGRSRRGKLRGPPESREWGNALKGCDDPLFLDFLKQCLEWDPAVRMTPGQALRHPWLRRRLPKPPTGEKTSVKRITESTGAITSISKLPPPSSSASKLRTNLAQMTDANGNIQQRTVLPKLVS

[3] = biological target: T3, Myc-DYRK2 wild type (dual-specificity tyrosine-phosphorylation-regulated kinase 2) (human) (UniProt Q92630); assay: as above
T3 sequence: T2 sequence with M178K

| Substance | binding [1] | binding [2] | binding [3] |
| --- | --- | --- | --- |
| endogenous FBXW7 of HCT116 cells (from UniProt Q969H0 1-707) | binds |  |  |
| Flag-FBXW7 (F-box and WD repeat domain-containing 7, isoform α), wild type (from UniProt Q969H0 1-707) |  | binds | binds |
